{"source": "PubChem BioAssay AID504467", "about": "(National Center for Advancing Translational Sciences (NCATS), 2011)", "note": "Hit rate of the full screen: of about 330,000 compounds, about 7,700 (2.3%) were called active. Inconclusive results, whose numbers are uncertain, are shown with a selection of clear calls. Calls follow the shape of the dose curve; as a rule, active = well fitted inhibition curve with a large enough effect; inconclusive = small, poorly fitted or top-dose-only effect, or effect the other way; inactive = flat fitted curve, though single readings scatter. Potencies of inconclusive entries are doubtful fits and often do not repeat. Potency is read from the fitted curve at half-maximal effect."}
{"test": "qHTS screen for small molecules that inhibit ELG1-dependent DNA repair in human embryonic kidney (HEK293T) cells expressing luciferase-tagged ELG1; also: nearly all actives have a fitted effect of over 55% in size", "conditions": "HEK293T ELG1-luciferase reporter, luminescence, 16 h, DNA damage induced by 5-fluorouridine; series mostly up to 46.1 µM", "summary_of_the_method": "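In this reporter screen, reduction of luminescence relative to DMSO vehicle indicated activity. Compounds and 5-fluorouridine were added together to 2,000 cells per well, incubated for 16 hr at 37 °C, then developed with ONE-Glo.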"}
{"smiles": "O=C(/C=C/c1ccc(F)cc1)N1CC[C@@]2(O)CCCC[C@H]2C1", "Potency": "inactive"}
{"smiles": "CN1CCN(NC(=O)c2cn(-c3ccccc3)nc2-c2cccc(Br)c2)CC1", "Potency": "inactive"}
{"smiles": "COc1ccc(NS(=O)(=O)c2ccc(OCC(=O)N3CCOCC3)cc2)cc1Cl", "Potency": "inconclusive: 8.2 µM [inhibitor, partial curve]"}
{"smiles": "COc1ccc(/C=C(\\C#N)C(=O)OCCNC(=O)c2ccncc2)cc1", "Potency": "inactive"}
{"smiles": "CCOC(=O)c1cnc(Nc2nc3ccccc3o2)nc1CSC(=S)N(CC)CC", "Potency": "inconclusive: 29.1 µM [activator, single point]"}
{"smiles": "CCOP(=O)(OCC)/C(=N/OC(=O)c1ccc(Cl)cc1Cl)C(N)=O", "Potency": "inactive"}
{"smiles": "CC(C)CCN1C(=O)c2ccc(C(=O)NCc3ccccn3)cc2C1=O", "Potency": "inactive"}
{"smiles": "CCOC(=O)N1CCN(C(=O)CS(=O)(=O)c2cn(Cc3ccc(Cl)cc3)c3ccccc23)CC1", "Potency": "inconclusive: 18.4 µM [inhibitor, partial curve, poor fit]"}
{"smiles": "O=C1CCC(C(=O)N2CCCCCC2)CN1CCc1ccc(Cl)cc1", "note": "(stereo unspecified)", "Potency": "inactive"}
{"smiles": "CC(C)c1ccc(/C=C/c2ccc(=O)n(C)n2)cc1", "Potency": "inconclusive: 13 µM [activator, partial curve]"}
{"smiles": "CCC(=O)C(C#N)(c1ccc(OC)c(OC)c1)C(C)C", "note": "(stereo unspecified)", "Potency": "inconclusive: 20.6 µM [activator, partial curve, poor fit]"}
{"smiles": "CCc1cc(-c2n[nH]c(=S)n2-c2cccc(C)c2)cs1", "Potency": "inactive"}
{"smiles": "CC(C)(C)NC(=O)CSc1nnc(-c2ccccc2)c(-c2ccccc2)n1", "Potency": "inconclusive: 6.51 µM [inhibitor, partial curve, poor fit]"}
{"smiles": "CCc1nnc(NS(=O)(=O)c2ccccc2)s1", "Potency": "inconclusive: 1.12 µM [activator, single point]"}
{"smiles": "CCOCCOC(=O)c1[nH]c2c(c1C)C(=O)CC(c1cc(OC)c(OC)c(OC)c1)C2", "note": "(stereo unspecified)", "Potency": "active: 4.11 µM"}
{"smiles": "CCc1ccc(NC(=O)c2cnc3n(c2=O)CCS3)cc1", "Potency": "inconclusive: 6.51 µM [activator, partial curve]"}
{"smiles": "O=C(NCc1ccc(F)cc1)c1cccc2c1C(=O)c1ccc(N3CCOCC3)cc1S2(=O)=O", "Potency": "inconclusive: 8.2 µM [inhibitor, partial curve]"}
{"smiles": "COc1ccc(NC(=O)CSc2nc3ccccc3nc2N2CCCC2)cc1", "Potency": "inconclusive: 29.1 µM [inhibitor, single point]"}
{"smiles": "COc1ccc(NC(=O)CN(C)C(=O)c2cccc(S(=O)(=O)Nc3ccc(OC)cc3)c2)cc1", "Potency": "inactive"}
{"smiles": "Cc1ccccc1C(=O)N1CCN(c2ccc([N+](=O)[O-])c(N3CCOCC3)c2)CC1", "Potency": "inconclusive: 29.1 µM [inhibitor, single point]"}
{"smiles": "Cn1cccc1C(=O)NC(=O)COC(=O)CC12CC3CC(CC(Br)(C3)C1)C2", "Potency": "inconclusive: 9.2 µM [inhibitor, partial curve, poor fit]"}
{"smiles": "COc1ccc(OC)c(N(C)S(=O)(=O)c2cc3c(cc2C)NC(=O)CO3)c1", "Potency": "inactive"}
{"smiles": "COc1ccc(CCNC(=O)c2cc(C)oc2C)cc1", "Potency": "inactive"}
{"smiles": "COC(=O)c1cc2c(C)c(C)c3ccccn3c-2c1C(=O)OC", "Potency": "inconclusive: 18.4 µM [inhibitor, partial curve]"}
{"smiles": "CC(=O)Nc1ccc(S(=O)(=O)NC2(C(F)(F)F)NC(=O)N(CC(C)C)C2=O)cc1", "note": "(stereo unspecified)", "Potency": "inconclusive: 18.3 µM [activator, partial curve]"}
{"smiles": "CC1CCc2nc(NC(=O)CN3CCOCC3)sc2C1", "note": "(stereo unspecified)", "Potency": "inconclusive: 18.4 µM [activator, partial curve]"}
{"smiles": "Cn1c(=O)c2c(nc(N3CCCCCC3)n2CC(O)COc2ccccc2)n(C)c1=O", "note": "(stereo unspecified)", "Potency": "inconclusive: 23.1 µM [inhibitor, single point]"}
{"smiles": "COC(=O)c1nnn(CC(=O)NC(=O)Nc2cccc(C)c2C)c1C(=O)OC", "Potency": "inactive"}
{"smiles": "O=C1CCc2cc(NS(=O)(=O)c3ccc(F)cc3)cc3c2N1CC3", "Potency": "inconclusive: 5.8 µM [activator, full curve, poor fit]"}
{"smiles": "CCn1c(SCC(=O)Nc2ccc(Cl)cc2)nc2nc3c(cc2c1=O)CCCC3", "Potency": "inconclusive: 25.9 µM [inhibitor, single point]"}
{"smiles": "CCc1nc2ccc(C(=O)N3CCN(c4ccccc4)CC3)cc2nc1CC", "Potency": "inactive"}
{"smiles": "CCOC(=O)C(CC)(CCC(=O)O)c1csc(N)n1", "note": "(stereo unspecified)", "Potency": "inconclusive: 29.1 µM [activator, single point]"}
{"smiles": "Cc1ccccc1CNC(=O)C(=O)Nc1nccs1", "Potency": "inconclusive: 18.3 µM [activator, partial curve, poor fit]"}
{"smiles": "Cc1cc(C)nc(NC(=O)Nc2ccc(F)cc2F)n1", "Potency": "inconclusive: 8.2 µM [activator, partial curve, poor fit]"}
{"smiles": "CCOC(=O)c1[nH]c(C)c(C(=O)Nc2ccccc2F)c1C", "Potency": "inconclusive: 29.1 µM [activator, single point]"}
{"smiles": "CC(C)n1c(-c2ccccc2F)n[nH]c1=S", "Potency": "inactive"}
{"smiles": "O=C(NCCCN1CCCC1)c1ccc(CS(=O)(=O)c2c(Cl)cccc2Cl)o1", "Potency": "inconclusive: 18.3 µM [activator, partial curve, poor fit]"}
{"smiles": "Cc1cc(Br)ccc1N=C1C(=O)Nc2ccccc21", "Potency": "inactive"}
{"smiles": "CCCCNC(=O)c1onc(CSc2ccc(F)c(F)c2)c1C(=O)O", "Potency": "inactive"}
{"smiles": "O=S1(=O)N=C(N(CCO)/N=C/c2ccc(Br)cc2)c2ccccc21", "Potency": "inactive"}
{"smiles": "CSc1ncccc1C(=O)OCC(=O)NC1CCCCC1", "Potency": "inconclusive: 29.1 µM [activator, single point]"}
{"smiles": "Cc1cccc(N2CCN(C(=O)C3CC(=O)N(c4ccc5c(c4)OCCO5)C3)CC2C)c1", "note": "(stereo unspecified)", "Potency": "inconclusive: 18.3 µM [inhibitor, single point]"}
{"smiles": "Cc1ccc(S(=O)(=O)N2CCOCC2)cc1NC(=O)COC(=O)c1ccc(Cl)nc1", "Potency": "inactive"}
{"smiles": "COc1ccccc1N1CCN(CC(O)COc2ccc3c(c2)OCO3)CC1", "note": "(stereo unspecified)", "Potency": "inconclusive: 29.1 µM [inhibitor, single point]"}
{"smiles": "c1ccc(-c2cnnc(N3CCOCC3)n2)cc1", "Potency": "inconclusive: 20.6 µM [activator, single point]"}
{"smiles": "COc1ccc(CCCc2nnc(SCC(=O)Nc3ncc(C)s3)o2)cc1", "Potency": "inconclusive: 6.51 µM [inhibitor, partial curve, poor fit]"}
{"smiles": "Cc1ccccc1-c1nn(-c2ccccc2)cc1C(=O)NCC(c1ccco1)N1CCCC1", "note": "(stereo unspecified)", "Potency": "inconclusive: 29.1 µM [inhibitor, single point]"}
{"smiles": "Cc1csc(NC(=O)CSCc2c(C)noc2C)n1", "Potency": "inconclusive: 25.9 µM [activator, single point]"}
{"smiles": "CCn1ncc(/C=N\\NC(=O)COc2cc(C)cc(C)c2)c1C", "Potency": "inconclusive: 7.31 µM [inhibitor, partial curve]"}
{"smiles": "CNc1c(NS(=O)(=O)c2ccc(Br)cc2)c(=O)oc2ccccc12", "Potency": "inconclusive: 20.6 µM [activator, single point]"}
{"smiles": "COc1cc(/C=C/c2cccc[n+]2C)ccc1OCC(=O)Nc1cccc(Cl)c1", "Potency": "inconclusive: 10.3 µM [inhibitor, partial curve]"}
{"smiles": "O=C(NNC(=S)Nc1cccc(C(F)(F)F)c1)c1cccc(Cl)c1", "Potency": "inactive"}
{"smiles": "CCCCc1ccc(NC(=O)CSc2nc(=O)n(CCN(CC)CC)c3c2CCCC3)cc1", "Potency": "inactive"}
{"smiles": "COc1ccc(N2CCN(Cc3nc4c(c(=O)[nH]c(=O)n4C)n3Cc3cccc(Cl)c3)CC2)cc1", "Potency": "inconclusive: 16.4 µM [inhibitor, single point]"}
{"smiles": "CC(=O)Nc1cc(C(=O)NCc2ccco2)ccc1Sc1ccc(F)cc1", "Potency": "inactive"}
{"smiles": "Cc1ccc2nc3c(cc2c1)c(NC(=O)c1ccco1)nn3CC(C)C", "Potency": "inconclusive: 25.9 µM [inhibitor, partial curve, poor fit]"}
{"smiles": "O=C(c1cccc(S(=O)(=O)N2CCCCC2)c1)N1CCCCC1", "Potency": "inactive"}
{"smiles": "CC12C(=O)N(CCC(=O)O)C(=O)C1C1C=CC2C1", "note": "(stereo unspecified)", "Potency": "inactive"}
{"smiles": "Cc1cccc(Cc2nnc(CCC(=O)N(CC3CC3)CC3CCCO3)o2)c1", "note": "(stereo unspecified)", "Potency": "inconclusive: 20.6 µM [activator, partial curve]"}
{"smiles": "O=C(CSc1nnc(-c2ccccn2)o1)Nc1ccc(F)cc1", "Potency": "inconclusive: 9.2 µM [activator, partial curve]"}
{"smiles": "COc1cccc(/C=C2\\SC(=S)N(CCC(=O)NC3C=CS(=O)(=O)C3)C2=O)c1", "note": "(stereo unspecified)", "Potency": "active: 4.61 µM"}
{"smiles": "Cn1cccc1C(=O)OCc1cc(-c2ccco2)on1", "Potency": "inconclusive: 16.4 µM [activator, partial curve]"}
{"smiles": "COc1ccc(C2(CNC(C)=O)CCCC2)cc1OC", "Potency": "inconclusive: 5.17 µM [inhibitor, single point]"}
{"smiles": "CC(=O)/C(=N/Nc1ccc(Br)cc1)Sc1cccc2cccnc12", "Potency": "inconclusive: 18.4 µM [inhibitor, partial curve, poor fit]"}
{"smiles": "Cc1ccc(CNC(=O)C2CCN(S(=O)(=O)N3CCC4(CC3)OCCO4)CC2)cc1", "Potency": "inactive"}
{"smiles": "COC(=O)c1cnc(Oc2ccc(NC(=O)NC(=O)c3ccccc3Cl)cc2)cc1C(F)(F)F", "Potency": "inactive"}
{"smiles": "O=C(COC(=O)c1cc([N+](=O)[O-])ccc1NCc1ccccc1)NC1CCCc2ccccc21", "note": "(stereo unspecified)", "Potency": "inconclusive: 11.6 µM [inhibitor, partial curve]"}
{"smiles": "COc1ccc(NC(=O)CC2SC(=O)NC2=O)cc1", "note": "(stereo unspecified)", "Potency": "inconclusive: 20.6 µM [inhibitor, single point]"}
{"smiles": "CCOC(=O)c1c[nH]c(=S)n1C", "Potency": "inconclusive: 23.1 µM [inhibitor, single point]"}
{"smiles": "CCOC(=O)c1ccc(NC(=O)CSc2nnc(-c3cccs3)n2CC)cc1", "Potency": "inconclusive: 18.4 µM [inhibitor, single point]"}
{"smiles": "COC(=O)c1ccc(COc2ccc(CNCc3ccc(Cl)cc3)cc2)cc1", "Potency": "inconclusive: 11.6 µM [activator, partial curve]"}
